The target of test [1] is tyrosine hydroxylase (TH), endogenous in mouse striatum and midbrain (mouse (endogenous in C57BL/6 striatum and midbrain)) (UniProt P24529). The test can be described thus: co-IP; mouse striatal and midbrain lysates (50 mM Tris pH 7.4, 150 mM NaCl, 0.1% SDS, 0.5% Na deoxycholate, 1% Triton X-100); 500 µg lysate with 5 µg TH or PICK1 antibody overnight at 4°C, Protein-G beads, immunoblotting. On the technique in general: A western blot detects proteins with antibodies after separation by electrophoresis.

Amino acid sequences for entries named in this document (tags omitted).
UniProt P24529: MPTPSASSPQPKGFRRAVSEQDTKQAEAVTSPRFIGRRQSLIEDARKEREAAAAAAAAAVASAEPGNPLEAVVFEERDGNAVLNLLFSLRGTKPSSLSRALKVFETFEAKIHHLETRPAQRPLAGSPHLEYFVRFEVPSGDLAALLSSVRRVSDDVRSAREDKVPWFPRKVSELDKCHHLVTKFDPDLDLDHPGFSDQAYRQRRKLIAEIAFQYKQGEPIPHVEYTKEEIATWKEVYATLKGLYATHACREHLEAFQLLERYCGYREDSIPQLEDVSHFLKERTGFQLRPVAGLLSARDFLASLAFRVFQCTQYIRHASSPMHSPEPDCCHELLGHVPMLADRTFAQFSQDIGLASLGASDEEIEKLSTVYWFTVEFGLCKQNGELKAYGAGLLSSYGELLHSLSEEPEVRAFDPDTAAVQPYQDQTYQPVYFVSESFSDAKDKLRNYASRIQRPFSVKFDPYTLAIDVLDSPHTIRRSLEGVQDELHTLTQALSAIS
UniProt Q62083: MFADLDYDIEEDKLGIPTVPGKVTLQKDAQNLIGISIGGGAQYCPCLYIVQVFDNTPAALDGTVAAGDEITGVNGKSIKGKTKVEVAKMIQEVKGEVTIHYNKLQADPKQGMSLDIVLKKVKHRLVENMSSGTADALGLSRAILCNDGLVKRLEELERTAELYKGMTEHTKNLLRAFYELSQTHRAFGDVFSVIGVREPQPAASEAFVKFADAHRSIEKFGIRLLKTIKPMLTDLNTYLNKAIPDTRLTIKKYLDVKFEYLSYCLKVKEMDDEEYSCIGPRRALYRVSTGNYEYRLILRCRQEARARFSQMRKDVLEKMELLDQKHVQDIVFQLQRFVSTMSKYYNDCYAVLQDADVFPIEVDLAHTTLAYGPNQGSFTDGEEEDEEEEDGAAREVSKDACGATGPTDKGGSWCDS

The target of test [2] is PICK1, endogenous in mouse striatum and midbrain (mouse (endogenous in C57BL/6 striatum and midbrain)) (UniProt Q62083). Described as above.

This passage reports binding results from article PMC6001137.

No constants are given. Whether binding was seen depends on the method and setting. In cells and extracts the contact can be indirect.

As to “PICK1, endogenous in mouse striatum and midbrain (from UniProt Q62083 1-416)”, the binding result in test [1] was “no binding”.
On to “tyrosine hydroxylase (TH), endogenous in mouse striatum and midbrain (from UniProt P24529 1-498) (enzyme)”, for which, in test [2], the binding result is on record as “no binding”.
